# Measured values reported in PMC12712958.
# Protein sequences, listed by entry. Tags and fused reporters are not part of them.
# UniProt P10361: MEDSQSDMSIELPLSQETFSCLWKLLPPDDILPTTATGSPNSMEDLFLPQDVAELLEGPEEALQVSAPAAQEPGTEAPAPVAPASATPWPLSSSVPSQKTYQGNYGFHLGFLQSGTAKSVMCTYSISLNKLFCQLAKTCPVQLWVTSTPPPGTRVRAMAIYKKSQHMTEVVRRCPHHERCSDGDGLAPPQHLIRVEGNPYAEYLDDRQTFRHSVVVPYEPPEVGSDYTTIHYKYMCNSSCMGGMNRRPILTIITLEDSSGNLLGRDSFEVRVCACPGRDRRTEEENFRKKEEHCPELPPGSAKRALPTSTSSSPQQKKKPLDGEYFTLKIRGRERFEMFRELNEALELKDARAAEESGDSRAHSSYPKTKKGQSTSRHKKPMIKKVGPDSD
# UniProt Q62747: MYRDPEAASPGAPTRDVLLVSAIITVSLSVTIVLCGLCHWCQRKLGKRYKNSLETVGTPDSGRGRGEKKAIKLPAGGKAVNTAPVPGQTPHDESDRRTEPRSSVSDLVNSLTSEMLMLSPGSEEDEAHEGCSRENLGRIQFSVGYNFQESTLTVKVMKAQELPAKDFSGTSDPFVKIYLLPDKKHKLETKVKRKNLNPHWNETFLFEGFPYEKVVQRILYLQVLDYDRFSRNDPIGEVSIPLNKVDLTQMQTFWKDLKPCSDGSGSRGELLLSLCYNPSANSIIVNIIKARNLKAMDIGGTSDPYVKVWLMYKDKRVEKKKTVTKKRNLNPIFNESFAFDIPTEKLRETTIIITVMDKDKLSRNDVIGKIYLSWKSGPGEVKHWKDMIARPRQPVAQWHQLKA
# No constants are given. Whether binding was seen depends on the method and setting. In cells and extracts the contact can be indirect. Some entries that bind do so weakly or less than the wild type.
# Biological target: p53 (rat (endogenous in H9c2)) (UniProt P10361)
# Assay: co-IP; Pierce Classic IP kit; antibody on protein A/G agarose; 200 ug of H9c2 lysate, 4 °C overnight; Western blot with anti-Syt7 and anti-p53; cells with or without 1 uM CORT for 48 h, and with Syt7 siRNA
substance,measurement,value
Synaptotagmin-7 (from UniProt Q62747 1-403),binding,binds
